About 3,700 (1.2%) of roughly 300,000 compounds were called active. This list was built around the results that the source calls inconclusive (neither active nor inactive); the mix of calls is not that of the screen. The call rests on the fitted dose curve; tested in HEK293 cells. Where the call is inconclusive, the potency comes from a doubtful curve fit.
Assay: qHTS for Inhibitors of binding or entry into cells for Lassa Virus; further: nearly all actives have a fitted effect of over 50% in size
Conditions: Lassa virus pseudotype entry inhibition, cell reporter; activity change, negative = inhibition: at 37.9 µM (top of the series) unless noted
On the % scale 0 is the no-effect control and ±100 the full control effect; potency means the concentration at half of the fitted maximal effect.

| Structure (SMILES) | Potency | activity change, negative = inhibition |
| --- | --- | --- |
| Cc1cc(C)c(S(=O)(=O)N2CCC(C(=O)NCc3ccc(Cl)cc3Cl)CC2)c(C)c1 | inconclusive: 13 µM [inhibitor, partial curve, poor fit] |  |
| CC(CCc1ccccn1)C(=O)c1ccccc1 (stereo not given) | inconclusive: 3.55 µM [inhibitor, partial curve, poor fit] |  |
| COC(=O)C1=C(C(=O)OC)C2OC1c1cc3ccccc3cc12 |  | inactive: -12.4% |
| Cn1c(-c2ccccc2O)cc2ccccc21 | inconclusive: 14.1 µM [inhibitor, single point] |  |
| COc1ccc(/C=C/C(=O)c2cc(F)ccc2OC(=O)c2ccccc2OC)cc1OC | inconclusive: 4.47 µM [inhibitor, single point] |  |
| CC(=O)c1ccc(NC(=O)C2=CC(c3ccc4c(c3)OCO4)=NS(=O)(=O)N2C)cc1 | inconclusive: 8.91 µM [activator, partial curve, poor fit] |  |
| CS(=O)(=O)N(CC(=O)N1CCN(Cc2ccc3c(c2)OCO3)CC1)Cc1ccc(Cl)cc1 | active: 9.2 µM |  |
| Cc1ccc(C(=O)Nc2cccc(C(=O)N/N=C/c3ccccc3F)c2)cc1 | inconclusive: 3.16 µM [inhibitor, partial curve, poor fit] |  |
| COc1cccc2sc(N(CCN(C)C)C(=O)c3ccc4c(c3)CCCC4)nc12 | inconclusive: 35.5 µM [inhibitor, single point] |  |
| COc1ccc(C(=O)Cn2c(NCCO)nc3ccccc32)cc1 | inconclusive: 3.16 µM [inhibitor, partial curve, poor fit] |  |
| O=C(Nc1nc2ccc(F)cc2s1)C1=COCCO1 | active: 2.82 µM |  |
| CC1CCCN(c2ccc(F)cc2N)C1 (stereo not given) | inconclusive: 10 µM [inhibitor, partial curve, poor fit] |  |
| O=C(O)c1ccccc1C(=O)Nc1ccc(Oc2cccc3ccccc23)cc1 | inconclusive: 6.31 µM [inhibitor, partial curve, poor fit] |  |
| Cc1ccc(N(CC(=O)NC2CC3CCC2C3)S(C)(=O)=O)cc1C (stereo not given) | inconclusive: 5.17 µM [inhibitor, full curve, poor fit] |  |
| COc1ccc(OC)c(CCNc2ncnc3onc(-c4ccc(F)cc4)c23)c1 | inconclusive: 12.6 µM [inhibitor, partial curve, poor fit] |  |
| CCc1cccc(C)c1NC(=O)CN(C)Cc1ccc(Br)cc1 | inconclusive: 35.5 µM [inhibitor, partial curve, poor fit] |  |
| Cc1nc2ccc([N+](=O)[O-])cc2c(=O)n1Cc1cccc(Br)c1 |  | inactive: 11.9% [at 46.1 µM] |
| Cc1ccc(C(C)(C)C)c(OCCN2CCCC2)c1 | inconclusive: 35.5 µM [inhibitor, partial curve, poor fit] |  |
| CC(NC(=O)c1ccccc1NC(=O)c1nsc2ccccc12)c1ccccc1 (stereo not given) | inconclusive: 35.5 µM [activator, single point] |  |
| CNC(=O)c1cc(Nc2nnc(-c3ccc(O)cc3)c3ccccc23)ccc1OC | inconclusive: 31.6 µM [inhibitor, partial curve, poor fit] |  |
| O=C1CC(NS(=O)(=O)c2ccc3ccccc3c2)CN1c1ccccc1 (stereo not given) | inconclusive: 35.5 µM [inhibitor, single point] |  |
| Fc1cc(Br)ccc1Nc1c2c(nc3nc(-c4cccs4)nn13)CCCC2 | inconclusive: 35.5 µM [inhibitor, single point] |  |
| O=C1CCCc2cc(S(=O)(=O)NCC3CCC(C(=O)Nc4ccccc4F)CC3)ccc2N1 (stereo not given) |  | inactive: -3.31% [at 46.1 µM] |
| O=C(c1ccc(Cn2cc([N+](=O)[O-])cn2)o1)N1N=C(C(F)F)CC1(O)C(F)F (stereo not given) |  | inactive: -25% [at 14.3 µM] |

| Structure (SMILES) | Potency | activity change, negative = inhibition |
| --- | --- | --- |
| O=C(NNC(=S)NC1CCCCC1)c1ccc2c(c1)OCO2 |  | inactive: 19.6% |
| CCC(C)NC(=O)C1CCN(S(=O)(=O)c2ccc(Br)s2)CC1 (stereo not given) |  | inactive: -4.53% |
| COc1ccc(S(=O)(=O)N2CCOC23CCN(S(=O)(=O)c2cccs2)CC3)cc1 | inconclusive: 0.251 µM [inhibitor, full curve, poor fit] |  |
| O=C(NCCCc1ccccc1)C1CCN(S(=O)(=O)c2ccc(F)cc2)CC1 | inconclusive: 8.91 µM [inhibitor, partial curve, poor fit] |  |
| COc1ccc(NC(=O)NCCc2ccc(Cl)cc2)cc1OC |  | inactive: 6.62% |
| C#CCOc1ccc(-c2nnc(Nc3cccc(C)c3)c3ccccc23)cc1 | inconclusive: 35.5 µM [inhibitor, single point] |  |
| CCOC(=O)C1=NO[C@@]2(C=C(Br)C(=O)[C@H]3O[C@H]32)C1 | inconclusive: 2.66 µM [inhibitor, partial curve, poor fit] |  |
| COc1cnc(-c2ccccn2)nc1N(C)C | inconclusive: 7.08 µM [inhibitor, partial curve, poor fit] |  |
| COc1ccc(NC(=O)Nc2cccnc2)c(OC)c1 |  | inactive: 25.6% [at 46.1 µM] |
| Cc1cc(C)c2cc(C(O)c3nnnn3Cc3ccccc3)c(=O)[nH]c2c1 (stereo not given) |  | inactive: -14.9% |
| O=C(c1ccc(-c2ccccc2)cc1)C1CCCN(Cc2ccncc2)C1 (stereo not given) | inconclusive: 1.12 µM [inhibitor, full curve, poor fit] |  |
| CSc1nn(Cc2ccc(Cl)cc2)c(N(C(C)=O)C(C)=O)c1S(=O)(=O)c1ccccc1 | inconclusive: 35.5 µM [inhibitor, single point] |  |
| Cc1cc(C(=O)CSc2nnnn2-c2ccc(O)cc2)c(C)n1C | inconclusive: 7.08 µM [inhibitor, partial curve, poor fit] |  |
| N#Cc1c(NC(=O)COC(=O)C2CC3C=CC2C3)oc(-c2ccccc2)c1-c1ccccc1 (stereo not given) |  | inactive: -23.9% |
| Cc1ccc(C(=O)Nc2ccc3oc(-c4ccc(C(C)(C)C)cc4)nc3c2)cc1 |  | inactive: -9.43% [at 46.1 µM] |
| Nc1c2c(nc3sc4c(c13)CCCCC4)CCCC2 | inconclusive: 29.1 µM [inhibitor, single point] |  |
| O=C(O)c1ccc2c(c1)[C@@H]1C=CC[C@@H]1[C@H](c1ccccn1)N2 |  | inactive: 7.68% |
| CC(C)NOC(=O)c1ccc(Cl)cc1 |  | inactive: -10.6% |
| C=CCNC(=O)c1ccc(C(=O)c2ccccc2)cc1 |  | inactive: -9.55% |
| Cc1ccc(CNC(=O)CCCCCn2c(=O)c3sccc3n(CC(=O)N(C)c3ccccc3)c2=O)cc1 | inconclusive: 8.91 µM [inhibitor, partial curve, poor fit] |  |
| CC(SCc1ccccc1)C(=O)N/N=C/c1ccc(OCC(=O)NCc2ccco2)cc1 (stereo not given) | inconclusive: 23.1 µM [inhibitor, partial curve] |  |
| COc1ccc(CC2C(=O)NC(C)C(=O)N(C)C3Cc4ccc(cc4)Oc4cc(ccc4O)CC(C(=O)NC(C)C(=O)NC(C)C(=O)N2C)N(C)C3=O)cc1 (stereo not given) | inconclusive: 0.316 µM [inhibitor, full curve, poor fit] |  |
| O=S(=O)(c1cc(F)ccc1F)N1CCC2(CC1)OCCN2S(=O)(=O)c1cccs1 |  | inactive: 9.31% |
| COc1ccc(S(=O)(=O)N2CCCCC2)cc1C(=O)Nc1cccc(C(F)(F)F)c1 |  | inactive: -5.73% [at 46.1 µM] |

Reformatted field by field: entries from further up.
Cn1c(-c2ccccc2O)cc2ccccc21
  Potency: inconclusive: 14.1 µM [inhibitor, single point]
Cc1ccc(C(=O)Nc2ccc3oc(-c4ccc(C(C)(C)C)cc4)nc3c2)cc1
  activity change, negative = inhibition: inactive: -9.43% [at 46.1 µM]

Remaining list, next part:

| Structure (SMILES) | Potency | activity change, negative = inhibition |
| --- | --- | --- |
| S=C1Cc2ccccc2C(c2ccc(Cl)cc2)N1 (stereo not given) | inconclusive: 0.891 µM [inhibitor, partial curve, poor fit] |  |
| CC(C)NP(=O)(NC(C)C)OP(=O)(NC(C)C)NC(C)C | inconclusive: 0.0183 µM [activator, full curve] |  |
| O=C(O)C1CCN(C(=O)c2ccc(Cl)cc2)CC1 |  | inactive: -0.536% |
| CCOC(=O)c1cc2c(C)n(-c3ccc(OCC)cc3)c(C)c2ccc1=O | inconclusive: 11.2 µM [inhibitor, partial curve, poor fit] |  |
| COCCNC(=O)c1sc2nc(-c3ccccc3)cn2c1C |  | inactive: 22.8% |
| CN(/N=C/c1ccncc1)c1cnc2ccccc2n1 | inconclusive: 0.562 µM [activator, full curve, poor fit] |  |
| COc1ccccc1CN1COc2ccc3c(oc(=O)c4ccccc43)c2C1 |  | inactive: -27.7% [at 46.1 µM] |
| CCC(C)NC(=O)c1c(F)c(F)c(F)c(F)c1F (stereo not given) |  | inactive: -0.18% |
| Fc1ccc(-c2cc3nc4c(c(N5CCOCC5)n3n2)CCCC4)cc1 | inconclusive: 20.6 µM [inhibitor, single point] |  |
| Cc1ncsc1CCOC(=O)c1ccc(Cl)cc1 | inconclusive: 35.5 µM [inhibitor, single point] |  |
| COc1ccc(S(N)(=O)=O)cc1C(=O)NCC1(N2CCCCC2)CCCCC1 | inconclusive: 0.562 µM [activator, full curve, poor fit] |  |
| CC1C(=O)N2CCCc3cc(S(=O)(=O)Nc4ccccc4C(N)=O)cc1c32 (stereo not given) |  | inactive: 24.5% |
| CN1C(=O)c2oc3ccccc3c(=O)c2C1c1ccncc1 (stereo not given) | inconclusive: 35.5 µM [activator, single point] |  |
| CCC(C)c1ccc(-c2cc(C(=O)OCC(=O)Nc3cc(C)on3)c3ccccc3n2)cc1 (stereo not given) | active: 1.58 µM |  |
| O=S(=O)(O)c1ccc(N=NNc2ccc(Br)cc2)cc1 | inconclusive: 6.31 µM [inhibitor, single point] |  |
| COCCNC(=O)[C@@]1(Cc2ccccc2)C=C[C@@H](C)N1C(C)=O | inconclusive: 5.17 µM [activator, single point] |  |
| Cc1cc(C)n2c(nc3ccccc32)c1C(=O)NCc1ccccc1 |  | inactive: -0.279% |
| O=C(N/N=C/c1c[nH]c2ccccc12)c1ccc(O)c(O)c1 |  | inactive: 14.9% |
| c1ccc(-c2csc3ncnc(NCC4COc5ccccc5O4)c23)cc1 (stereo not given) | inconclusive: 9.2 µM [inhibitor, partial curve] |  |
| O=C(O)c1ccc(NNC(=S)Nc2cc(C(F)(F)F)ccc2Cl)cc1 |  | inactive: 10.5% [at 46.1 µM] |
| Cc1c(C#N)c(NC(=O)CCl)n(Cc2ccccc2)c1C | inconclusive: 11.2 µM [inhibitor, partial curve, poor fit] |  |
| CCCCNC(=S)Nc1ccc2cn[nH]c2c1 | inconclusive: 0.164 µM [inhibitor, partial curve, poor fit] |  |
